Our source for the binding signal values is PMC7862700.

The list shows a part of the results, in another mix than the full data. At the low end of the ranking the order means little.

The target of this test is T1, FEV (UniProt Q99581).
T1 sequence: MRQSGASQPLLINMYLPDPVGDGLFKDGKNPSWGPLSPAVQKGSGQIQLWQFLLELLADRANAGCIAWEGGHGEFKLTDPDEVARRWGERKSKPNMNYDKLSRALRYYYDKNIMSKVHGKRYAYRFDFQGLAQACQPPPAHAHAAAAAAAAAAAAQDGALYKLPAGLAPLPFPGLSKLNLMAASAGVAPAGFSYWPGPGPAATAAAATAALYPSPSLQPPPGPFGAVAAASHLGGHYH
The test is described as follows: DAPPL (digital affinity profiling via proximity ligation, sequencing). The note with it: 10 mM Tris-HCl pH 7.5, 50 mM NaCl, 1 mM DTT, 4% glycerol, room temperature, 30 min; GST-TFs on glutathione beads, 16-mer random dsDNA library, 0.1% …; high values mean tight binding; double strand, one strand shown; scale: fold enrichment (6-mer frequency, TF over GST control).
CCCTAT showed a binding signal of 1.39.
TCTTTC yielded a binding signal of 1.39.
With TAGGAT the figure was 0.927; with AATATT, 1.3.
Under ACGTAT stands 1.2; under CTACGC, 1.62.
With TGCTCC the figure was 1.38; with TTTAAC, 1.09.
For the sequence CTCGGC, the binding signal was found to be 1.29.
Under AAGGAT stands 1.1.
With CTCTCC the figure was 1.32.
Sequence CGTTAT yielded a binding signal of 1.03.
Take TGATAA: the binding signal turned out to be 0.969.
With CCCAAA, the binding signal worked out at 1.08.
AGCTCT: the binding signal worked out at 1.19.
With AAACTC the figure was 1.18.
With TACTCA the figure was 1.24; with AGAAAA, 1; with TCACTA, 1.11.
In turn, ATACAC gave a binding signal of 1.24.
Consider ATCCTA, for which the binding signal turned out to be 1.32.
With CGCGAT the figure was 0.994; with TCTACC, 1.52; with CTTGCT, 1.25.
Under TAAGCC stands 1.15; under TTGCTC, 1.25.
Under TCAGAT stands 0.977; under TCTCGT, 1.21; under TGTTGA, 1.07.
In turn, AATCTA came in with a binding signal of 1.15.
Under TCCTGA stands 1.31; under GCCCTA, 1.28.
With TGGGAT the figure was 1.18; with ATTTTG, 1.15.
With TGATGC the figure was 1.44.
On to GCGATA, for which the binding signal was 0.981.
Under TATCTT stands 1.33.
Under TACGGT stands 0.997; under TTCTAA, 1.18; under ATACGC, 1.05.
